Reference: the supplement of paper PMC12823440, “Inhibitors supercharge kinase turnover through native proteolytic circuits” (Nature, 2025)
The other results are listed elsewhere or left out. The calls rarely recur for the same compound in another form.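 Kinases were expressed as nanoluciferase fusions in K562 cells and luminescence was read every 4 h between 2 and 18 h as percent of control, DMSO set to 100% and a positive control to 0%. A time point counts as decreased when the signal drops significantly (2 sigma). The hit call is the authors' own, does not follow from the count of time points alone, and its rule is not shown.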

The chains behind the UniProt entries cited, without tags or fusion partners. Where a name states a change or a piece, a line headed by the entry shows the natural chain unless it says otherwise.
UniProt Q9Y6E0: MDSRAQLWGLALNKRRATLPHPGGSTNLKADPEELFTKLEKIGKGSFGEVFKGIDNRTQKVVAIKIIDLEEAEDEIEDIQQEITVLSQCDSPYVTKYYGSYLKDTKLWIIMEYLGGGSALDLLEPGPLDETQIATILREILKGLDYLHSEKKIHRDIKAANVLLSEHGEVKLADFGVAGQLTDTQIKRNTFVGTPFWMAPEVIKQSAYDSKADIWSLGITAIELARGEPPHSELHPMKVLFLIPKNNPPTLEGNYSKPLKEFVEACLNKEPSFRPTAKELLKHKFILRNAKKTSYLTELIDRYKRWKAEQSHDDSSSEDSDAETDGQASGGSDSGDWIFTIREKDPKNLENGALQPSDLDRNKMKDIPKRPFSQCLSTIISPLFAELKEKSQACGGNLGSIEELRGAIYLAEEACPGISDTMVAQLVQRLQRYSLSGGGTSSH

biological target: STK24 (UniProt Q9Y6E0); experiment: number of time points (of 5) at which kinase-Nluc abundance scored as decreased, DMSO-normalised (count); higher = more persistent destabilization; conditions: K562; 2-18 h

SMILES | number of time points
C[C@H]1Cc2ccccc2N1C(=O)Cc1nc(N2CCOCC2)cc(=O)[nH]1 (2.5 µM) | 0
CC(C)c1cc(/C=C(\C#N)C(N)=O)cc(C(C)C)c1O (10 µM) | 0
COc1c(C)c(C(=O)c2ccc(N)c(C(=O)O)c2)n2ccccc12 (10 µM) | 0
C[C@@H]1CCc2ncc(F)cc2[C@H]2CCCN2c2ccn3ncc(c3n2)C(=O)N1 [Selitrectinib] (10 µM) | 0
CCN(C)C(=O)c1ccc2c(C(=Nc3ccc(CN4CCCCC4)cc3)c3ccccc3)c(O)[nH]c2c1 (2.5 µM) | 0
O=C(CO)N1CCC(c2n[nH]c(-c3ccc(Cl)cc3)c2-c2ccncn2)CC1 (10 µM) | 0
C[C@@H]1COCCN1c1cc(C2([S@](C)(=N)=O)CC2)nc(-c2cc[nH]c3nccc2-3)n1 [Ceralasertib] (2.5 µM) | 0
CCOC(=O)c1c2c3c(cccc3[nH]c1=O)C(=O)c1ccccc1-2 (10 µM) | 0
O=C(c1ccc(Nc2nccc(-c3cc4ccccc4s3)n2)cc1)N1CCC(N2CCCC2)CC1 (2.5 µM) | 0
Cc1ccc(-c2nn(C(C)(C)CNC(=O)c3ccncc3)c3ncnc(N)c23)cc1 (2.5 µM) | 0
O=C(O)c1ccc(-c2c[nH]c3ncc(-c4ccccc4)cc23)cc1C1CCCC1 (2.5 µM) | 0
CCOc1nc(Nc2ccc(C(=O)N3CCOCC3)cc2OC)nc2[nH]ccc12 [LRRK2 inhibitor 1] (2.5 µM) | 0
CN(CC(=O)N(Cc1ccc(C2CCCCC2)cc1)c1ccc(C(=O)O)c(O)c1)S(=O)(=O)c1c(F)c(F)c(F)c(F)c1F (2.5 µM) | 0

2 of the compounds above, in CSV form.
SMILES,number of time points
O=C(O)c1ccc(-c2c[nH]c3ncc(-c4ccccc4)cc23)cc1C1CCCC1 (2.5 µM),0
CCOc1nc(Nc2ccc(C(=O)N3CCOCC3)cc2OC)nc2[nH]ccc12 [LRRK2 inhibitor 1] (2.5 µM),0
